The list shows a part of the results.
target: T1, OsSMF1 (Oryza sativa, UniProt Q6ZLB0 1-436); test: protein-binding microarray (RPBM); PBS, 2% BSA, 51.3 ng/ul salmon testes DNA, 50 uM zinc acetate, 200 nM TF, 25 C, 1 h; high values mean tight binding; settings: protein: recombinant; tags: N-terminal polyhistidine and DsRed monomer fusion (pET32a); chain copies: 2; label: CyDye5-dUTP incorporated in the synthesized complementary strand; 3' TTTTT single-stranded linker to array surface; dsDNA, one strand shown
T1 sequence: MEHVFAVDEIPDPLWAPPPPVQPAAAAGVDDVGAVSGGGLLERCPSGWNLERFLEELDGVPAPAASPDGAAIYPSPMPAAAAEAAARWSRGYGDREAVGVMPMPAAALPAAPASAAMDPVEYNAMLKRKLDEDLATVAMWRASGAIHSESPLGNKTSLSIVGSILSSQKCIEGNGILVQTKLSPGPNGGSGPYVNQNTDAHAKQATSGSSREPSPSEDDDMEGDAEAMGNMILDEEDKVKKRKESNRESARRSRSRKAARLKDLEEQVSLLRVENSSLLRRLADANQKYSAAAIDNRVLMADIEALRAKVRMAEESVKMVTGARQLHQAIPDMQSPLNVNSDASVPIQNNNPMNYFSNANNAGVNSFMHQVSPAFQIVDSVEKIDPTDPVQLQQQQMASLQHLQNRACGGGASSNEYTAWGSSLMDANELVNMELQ
Summary of the method: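 In PBS with 2% BSA, salmon testes DNA and 50 µM zinc acetate, 200 nM protein was incubated on a custom Agilent array at 25 °C for 1 h and then washed off. The array had been made double-stranded by primer extension with Cy5-dUTP and blocked with 2% BSA. The proteins were transcription factors fused N-terminally to polyhistidine and DsRed, expressed in E. coli BL21-CodonPlus and purified on Ni–NTA. The binding signal is per-feature fluorescence intensity (arbitrary units) from an Axon 4000B scanner.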

Sequence | binding signal
CCTCCTCGCTGCCCAGCCACCGCCGCCCTCCCGTCCCGCGCGGAGTCACCTAGTGCAG | 3490 fluorescence intensity (a.u.)
TCGAGTAAGGTTCCTTGTCGCCGTTGATGACGGCAGCCTCCGGAGTCACCTAGTGCAG | 3750 fluorescence intensity (a.u.)
CAGTATAATACTATAATCCTCCACGTTTGCGGCTCACGTGCGGAGTCACCTAGTGCAG | 5490 fluorescence intensity (a.u.)
CACGGGTGCCCGCGTCATCCCGTCCCCTCGAGCGTCGCCCCGGAGTCACCTAGTGCAG | 6980 fluorescence intensity (a.u.)
ATTTCCGTTTCTAAATTGACACATCGGCTACTCACTTATGCGGAGTCACCTAGTGCAG | 6380 fluorescence intensity (a.u.)
TCTTCAGGAGTCAGGACTAGCAAATGGTAAAGCAGCAATTCGGAGTCACCTAGTGCAG | 22900 fluorescence intensity (a.u.)
GCAAGCTACTAGCACACACTATCCACGTACTCCAGTACAGCGGAGTCACCTAGTGCAG | 5550 fluorescence intensity (a.u.)
ACCTATCATCAATGTGTTGGCTTAATTCAGCATCACTAATCGGAGTCACCTAGTGCAG | 3380 fluorescence intensity (a.u.)
GGAGGACCATTCGCTTCCACATCTGCGCCATCACAACCGCCGGAGTCACCTAGTGCAG | 3940 fluorescence intensity (a.u.)
TACACCGACTCCAACACATCATCCTCCTCCACCAAACTTACGGAGTCACCTAGTGCAG | 3450 fluorescence intensity (a.u.)
TTCTATAGAAGCTTTCTCTCTTAAAACTCTACCAAAATTTCGGAGTCACCTAGTGCAG | 24000 fluorescence intensity (a.u.)
TTAATTCATTAAACTTGTCGACAGGTCAACTCACCGACCACGGAGTCACCTAGTGCAG | 3950 fluorescence intensity (a.u.)
TGATTGCCTTGCCTTGCCTGCCTGCGTGTCATCAGTCGTCCGGAGTCACCTAGTGCAG | 11800 fluorescence intensity (a.u.)
TGCCGAAGTTGTTGGTGACGAAGTCGAGGCTGCCGAACCGCGGAGTCACCTAGTGCAG | 4750 fluorescence intensity (a.u.)
GGATTTCCTGGGCGGGCGGGGCGCGGATAAGGGGTGTGTGCGGAGTCACCTAGTGCAG | 3690 fluorescence intensity (a.u.)
CTTGTGGGTCCCCAATTCACGAGTCATTGCTGTCACGCTCCGGAGTCACCTAGTGCAG | 4620 fluorescence intensity (a.u.)
GCTGCTGCACCGTCTCTCTTCATAAATATACTAGTAGGAGCGGAGTCACCTAGTGCAG | 3180 fluorescence intensity (a.u.)
TAATATATCAAGCATAAATTTATGTTATCATTTTCTTTCGCGGAGTCACCTAGTGCAG | 3980 fluorescence intensity (a.u.)
GACATTGATAATAACACCGTCGTCAGCGCTACCCAAATTCCGGAGTCACCTAGTGCAG | 4070 fluorescence intensity (a.u.)
CTGGTACATATGCTTAATTATGTGGCAATTGCAGAGATTGCGGAGTCACCTAGTGCAG | 4570 fluorescence intensity (a.u.)
AGGTATATCTTGTAGAGCGTGTCATTGTCCAAAGCGTCAACGGAGTCACCTAGTGCAG | 4060 fluorescence intensity (a.u.)

Sequence | binding signal
TATATATATATAGCACGTCACGCTTAATATCATTCTGGTTCGGAGTCACCTAGTGCAG | 9050 fluorescence intensity (a.u.)
CGAGTGCGTCCCGTACCAACCAAACACGTCCGCTGTCATGCGGAGTCACCTAGTGCAG | 4710 fluorescence intensity (a.u.)
GGACAACCCAGATCCCTCGCCCGCGACTCTTCTACTCGCGCGGAGTCACCTAGTGCAG | 22800 fluorescence intensity (a.u.)
AATCCTAAATCAATCACCATAAGGTAAATTGACGTAGGAACGGAGTCACCTAGTGCAG | 6050 fluorescence intensity (a.u.)
TGAAACGCTGACCGAGTCATCAGATATGGCTTATGTGCCTCGGAGTCACCTAGTGCAG | 5790 fluorescence intensity (a.u.)
AGCTACTGCGGCACTAGTCACTCTCTCTCTCTCTCTCTATCGGAGTCACCTAGTGCAG | 3820 fluorescence intensity (a.u.)
GTCAAGTGCTGACAAGTGTCTGCACTAGCTAGAGATATATCGGAGTCACCTAGTGCAG | 3770 fluorescence intensity (a.u.)
AGCGAGCGACGGGCGGGGCGGAGCGGGGCGGGGCTGCATTCGGAGTCACCTAGTGCAG | 4380 fluorescence intensity (a.u.)
TAGTGACCAGCTATTTGTCAGCAATGCTTGGTGCGTTGGACGGAGTCACCTAGTGCAG | 4096 fluorescence intensity (a.u.)
GTGGGTGGGCCGAATCCTTTTGTAAGAGGAGATCAGTAAGCGGAGTCACCTAGTGCAG | 3210 fluorescence intensity (a.u.)
CCTTCACATGAGAGAATTGATGACGCCACATGCGAGACCCCGGAGTCACCTAGTGCAG | 3860 fluorescence intensity (a.u.)
AAAGCATTTCCTTTTCTTTCGAAGATGAAATAAAACAGAGCGGAGTCACCTAGTGCAG | 3570 fluorescence intensity (a.u.)
CACGCACACCACTCGTCAACACCACACCACATATCATCCCCGGAGTCACCTAGTGCAG | 7220 fluorescence intensity (a.u.)
ACGCGCAGATCGCCGCGCGCCCGCCTCCCCTCGCAGCCGCCGGAGTCACCTAGTGCAG | 16300 fluorescence intensity (a.u.)
TCATATCGTGGCTTTCGCTGACGTAGATTTACATTGGACCCGGAGTCACCTAGTGCAG | 13800 fluorescence intensity (a.u.)
AACAGAGGAGTTCTTCACTCAGTGTCTTTCTAAACAAGGGCGGAGTCACCTAGTGCAG | 3920 fluorescence intensity (a.u.)
TTGCTCACCTGAACAATGAACATGCATGTTCAGGACATCACGGAGTCACCTAGTGCAG | 3150 fluorescence intensity (a.u.)
CAGACAATGCCAATCCTTTGGTCAGCATCTAGCAAGCAATCGGAGTCACCTAGTGCAG | 3200 fluorescence intensity (a.u.)
CTGTGGACTGTGTGGCATGTATGCTGACCTTTTGTTTTGCCGGAGTCACCTAGTGCAG | 3140 fluorescence intensity (a.u.)
GCACGTTGCACGCCATGGCGAGGCACTCGGTGACGCCGGCCGGAGTCACCTAGTGCAG | 3390 fluorescence intensity (a.u.)
AAATGACTTTCTCGTCTTATGCTGACTTCATCTTCATTTTCGGAGTCACCTAGTGCAG | 4740 fluorescence intensity (a.u.)

Taken from above.
Entry of TATATATATATAGCACGTCACGCTTAATATCATTCTGGTTCGGAGTCACCTAGTGCAG under binding signal: 9050 fluorescence intensity (a.u.)
Entry of GCACGTTGCACGCCATGGCGAGGCACTCGGTGACGCCGGCCGGAGTCACCTAGTGCAG under binding signal: 3390 fluorescence intensity (a.u.)

Source: PMC7819943, “Rice protein-binding microarrays: a tool to detect cis-acting elements near promoter regions in rice”
